From US4139628A, “Amino-spiro[oxa(or thia)cycloalkane-penam]-carboxylic acid derivatives” (U C B, Societe Anonyme, priority 1977, dated 1979) come the findings set out here.

For the data set, the system named is beta-lactamase TEM. Briefly: hydrolysis kinetics in the presence of beta-lactamase (residual activity). The format is biochemical, Gram-negative bacteria. To be noted: as compared with ampicillin.

Each structure is given as a SMILES string.

Consider `NC(C(=O)NC1C(=O)N2C1SC1(CCSCC1)C2C(=O)O)c1ccccc1` (centres unmarked) [Compound F, 6-(2"-amino-2"-phenylacetamido)-2',3',5',6'-tetrahydro-spiro[penam-2,4'-[4H]thiopyran]-3-carboxylic acid], for which the “resistance to beta-lactamase, in words” value is “increased resistance”. Consider `NC(C(=O)NC1C(=O)N2C1SC1(CC[S+]([O-])CC1)C2C(=O)O)c1ccccc1` (centres unmarked) [Compound J, 6-(2"-amino-2"-phenylacetamido)-2',3',5',6'-tetrahydro-spiro[penam-2,4'-[4H]thiopyran]-3-carboxylic acid 1'-oxide], for which the “resistance to beta-lactamase, in words” value was “No change in behavior”.
